# Measurements taken from patent US20260144740A1, “COSMETIC ACTIVE INGREDIENT DERIVED FROM A NON-VOLATILE FRACTION OF CANARIUM EXUDATE AND USES THEREOF” (FLORE SCOLA, priority 2022, published 2026).
# System: PCi-SEB human sebocytes
# Test: Cellular proteins (Pierce BCA test) in sebocyte cultures
# Format: cell-based
# Conditions: 20 μM, positive control
structure (smiles),measurement,value
"CCCCCCCCCCCCCCOc1ccc(C(=O)O)o1 [TOFA, 5-(tetradecyloxy)-2-furoic acid]","Protein, Mean",239.99 μg/well
